In patent US20100322938A1 (COMPUGEN, published 2010) one finds binding data, which are given here for one molecule.

Chains of the proteins cited; added tags and fusions are not shown. Lines headed by an entry give the natural chain unless they say otherwise; changes in a name come on top.
UniProt P10909: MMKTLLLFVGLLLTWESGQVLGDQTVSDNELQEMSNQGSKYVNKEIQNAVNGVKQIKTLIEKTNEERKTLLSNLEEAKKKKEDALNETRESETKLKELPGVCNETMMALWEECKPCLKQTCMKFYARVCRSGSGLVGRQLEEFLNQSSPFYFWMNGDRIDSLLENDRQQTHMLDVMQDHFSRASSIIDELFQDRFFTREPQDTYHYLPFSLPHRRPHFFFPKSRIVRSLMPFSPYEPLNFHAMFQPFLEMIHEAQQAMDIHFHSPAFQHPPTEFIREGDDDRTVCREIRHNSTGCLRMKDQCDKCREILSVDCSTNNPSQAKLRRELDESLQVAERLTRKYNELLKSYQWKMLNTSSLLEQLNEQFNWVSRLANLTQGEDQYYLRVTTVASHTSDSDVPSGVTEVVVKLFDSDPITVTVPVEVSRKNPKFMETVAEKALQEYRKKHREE

No constants are given. Whether binding was seen depends on the method and setting. Some entries that bind do so weakly or less than the wild type.

The test has as its target recombinant human clusterin (Biovendor, cat no: RD172034100) (human) (UniProt P10909). Nature of the test: SPR (BIAcore), clusterin immobilized on CM5 chip (2000 RU), CGEN-CL1 injected at 312-5000 nM. (In general: SPR reads the build-up and loss of mass on a sensor chip optically.)

Consider FYFWMNGDRIDSLLENDRQQT (acetylated at its N-terminus; amidated at its C-terminus) [CGEN-CL1 peptide … [SEQ ID NO: 1]], for which the binding result is on record as “binds”.
